Source: the supplement of paper PMC4604168 (melanoma cell lines)
Some of the results follow. Single values are uncertain, as repeats are few or missing.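 Imaging used 1,536-well plates; nuclei positive for cleaved PARP by antibody were divided by total DNA-stained nuclei to yield the apoptosis fraction. Doses for screening kept most cells viable, and cell lines differ markedly in resting and induced cleaved-PARP levels.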

Assays:
Test in all cases: cleaved PARP positive nuclei fraction relative to DMSO control; melanoma cells; higher = more apoptosis
Conditions in all cases: library dose: low library concentration; 72 h
501Mel = test system: 501Mel
A101D = test system: A101D
A2058 = test system: A2058
A375 = test system: A375
C32 = test system: C32
CBRC008 = test system: CBRC008 (line from a melanoma biopsy)
CBRC013 = test system: CBRC013 (line from a melanoma biopsy)
CBRC014 = test system: CBRC014 (line from a melanoma biopsy)
CBRC016 = test system: CBRC016 (line from a melanoma biopsy)
CBRC017 = test system: CBRC017 (line from a melanoma biopsy)
COLO792 = test system: COLO792
COLO800 = test system: COLO800
COLO829 = test system: COLO829
G361 = test system: G361
IPC-298 = test system: IPC-298
IST-MEL1 = test system: IST-MEL1
LB2518-MEL = test system: LB2518-MEL
LOXIMVI = test system: LOXIMVI
MEL-HO = test system: MEL-HO

Structure (SMILES)	cleaved PARP positive nuclei fraction (501Mel)	cleaved PARP positive nuclei fraction (A101D)	cleaved PARP positive nuclei fraction (A2058)	cleaved PARP positive nuclei fraction (A375)	cleaved PARP positive nuclei fraction (C32)	cleaved PARP positive nuclei fraction (CBRC008)	cleaved PARP positive nuclei fraction (CBRC013)	cleaved PARP positive nuclei fraction (CBRC014)	cleaved PARP positive nuclei fraction (CBRC016)	cleaved PARP positive nuclei fraction (CBRC017)	cleaved PARP positive nuclei fraction (COLO792)	cleaved PARP positive nuclei fraction (COLO800)	cleaved PARP positive nuclei fraction (COLO829)	cleaved PARP positive nuclei fraction (G361)	cleaved PARP positive nuclei fraction (IPC-298)	cleaved PARP positive nuclei fraction (IST-MEL1)	cleaved PARP positive nuclei fraction (LB2518-MEL)	cleaved PARP positive nuclei fraction (LOXIMVI)	cleaved PARP positive nuclei fraction (MEL-HO)
C[C@@H](Oc1cc(-c2cnn(C3CCNCC3)c2)cnc1N)c1c(Cl)ccc(F)c1Cl [Crizotinib] + Cc1cc(N2CCOCC2)cc2[nH]c(-c3c(NC[C@@H](O)c4cccc(Cl)c4)cc[nH]c3=O)nc12 [BMS536924] (first compound 0.2 µM, partner dose 0.2 µM)	203%	41.7%	112%	166%	138%	290%	165%	86.5%	74%	101%	24.9%	69.9%	153%	186%	46.8%	67.3%	112%	83.8%	155%
O=C(O)c1ccc2c(c1)nc(Nc1cccc(Cl)c1)c1ccncc12 + CN(C)S(=O)(=O)c1ccc2c(c1)/C(=C/c1cc3c([nH]1)CCCC3)C(=O)N2 [SU6656] (first compound 0.4 µM, partner dose 0.4 µM)	69.5%	93.3%	222%	85.5%	186%	113%	160%	254%	334%	335%	73.3%	51%	87.9%	93.4%	504%	169%	107%	116%	80.9%
Cn1c(=O)n(-c2ccc(C(C)(C)C#N)cc2)c2c3cc(-c4cnc5ccccc5c4)ccc3ncc21 + O=C(CCCCCCC(=O)Nc1ccccc1)NO [vorinostat] (first compound 0.004 µM, partner dose 0.08 µM)	90.6%	20.3%	178%	96.8%	84.6%	119%	47.9%	82.5%	135%	99.1%	118%	132%	151%	44.1%	87.9%	65.8%	75.8%	109%	155%
C=C(c1ccc(C(=O)O)cc1)c1cc2c(cc1C)C(C)(C)CCC2(C)C [Bexarotene] + CC(C)(C)c1cnc(CSc2cnc(NC(=O)C3CCNCC3)s2)o1 [SNS-032] (first compound 2 µM, partner dose 0.01 µM)	93.2%	35.8%	52.9%	99.6%	127%	61.1%	113%	95.5%	167%	99.6%	112%	62.1%	160%	94.1%	58.5%	53.8%	96.8%	52.3%	75.7%
